PubChem BioAssay AID1159584 | Peter MacCallum Cancer Centre | 2016
Shown is one part, drawn at random, of about 18,000 reagents tested. Reagents against one gene are numbered here. Further read-outs or replicates are left out here. Not stated in the record: the amount of reagent, the time to read-out.

Purpose: 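Genes that CDH1-null MCF10A cells selectively depend on to survive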 (primary screen)
Cells: human MCF10A breast epithelial cells, parental and CDH1-null
Reagents: siRNA against human genes
Detection: 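ATP luminescence (CellTiter-Glo) viability per line relative to mean mock wells over all plates, and the ratio of CDH1-null to parental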
Direction: CDH1-null / parental viability ratio: higher = CDH1-null cells survive relatively better than parental; CDH1-null viability vs mock: higher = more viable CDH1-null cells

Gene	reagent	CDH1-null / parental viability ratio	CDH1-null viability vs mock (fraction of mock)
MFAP4	1	1.03	0.9
ARSI	1	1.02	0.93
GRIPAP1	1	1.19	0.86
ARL17B	1	0.93	0.7
DENND10	1	0.7	0.74
MKKS	1	1.25	0.74
APOBR	1	0.9	0.57
CYLD	1	1	0.4
HAUS4	1	0.9	0.77
PANK1	1	0.88	0.76
IFNAR2	1	0.98	0.94
ZNF264	1	1.16	0.74
RAPGEF3	1	0.74	0.46
FOXD4L1	1	1.09	1.26
AMPD2	1	0.71	0.64
TGDS	1	0.6	0.46
SLC6A5	1	0.9	0.72
OCEL1	1	1	0.82
C8G	1	1	0.82
PF4V1	1	0.94	0.96
CHMP2B	1	1.19	0.62
PEAR1	1	1.05	0.8
TAX1BP1	1	1.03	0.68
RAB12	1	0.67	0.41
ZNF485	1	0.8	0.6
TNP1	1	0.52	0.33
B4GALT5	1	1.1	0.92
H6PD	1	1.14	0.82
NDUFC2	1	0.97	0.96
ENTPD8	1	1.55	1.02
STAMBP	1	1.18	0.59
DEDD2	1	0.86	0.6
RRS1	1	0.76	0.22

A stretch of the results above, as a working copy:
Gene	reagent	CDH1-null / parental viability ratio	CDH1-null viability vs mock (fraction of mock)
PF4V1	1	0.94	0.96
CHMP2B	1	1.19	0.62
PEAR1	1	1.05	0.8

The list goes on.
Gene	reagent	CDH1-null / parental viability ratio	CDH1-null viability vs mock (fraction of mock)
ABRAXAS2	1	1.15	0.92
EFTUD2	1	1.38	0.36
EPHX4	1	0.76	0.71
OR4K2	1	0.85	0.57
NLGN2	1	1	0.99
MVK	1	1.02	0.62
RASAL2	1	1.1	0.78
FGD1	1	1.13	0.86
ERN2	1	0.92	0.79
MYBL1	1	1.13	0.85
H2BC4	1	1.19	0.74
DRG2	1	1.05	0.69
PXMP2	1	1.19	0.74
MICU3	1	1.22	1.16
SLC5A3	1	1.35	1
CDKN2B	1	0.87	0.8
ELAC2	1	0.71	0.4
PRB3	1	1.04	0.76
PUM2	1	1.02	0.96
FPR3	1	0.61	0.56
GYPE	1	1.02	0.92
AVPR1A	1	1.36	0.79
IL17RC	1	0.95	0.95
PRAMEF6	1	1.08	0.95
JAG1	1	0.79	0.68
SIRAL1	1	0.99	1
PHLDA3	1	0.92	0.9
IRS4	1	1.21	1.04
SLPI	1	0.91	0.68
CBX7	1	1.04	0.78
LDAF1	1	0.92	0.89
AGAP4	1	0.94	0.97
AGAP4	2	1.07	1.08
RAB27A	1	0.88	0.97
PRKDC	1	0.78	0.74
